The text below walks through data of the supplement of paper PMC6331611.

± gives the standard deviation of the averaged measurements. In all, about 1,600 compounds were measured (“normalized growth (OD600, IQM-normalized) in LPM”: median about 1, lowest 2% from about 0.014 on). The list shows a part of the results.

For this assay, the system named is Salmonella enterica serovar Typhimurium SL1344. Kind of assay: normalized growth (OD600, IQM-normalized) in LPM (fraction of plate interquartile mean); higher = more bacterial growth (less inhibition). The conditions noted are these: LPM pH 5.8; 10 µM; 16 h.
With `CC[N+](C)(C)c1cccc(O)c1`, the normalized growth turned out to be 0.984 ± 0.071.

As to `Nc1[nH]cnc2ncnc1-2`, the normalized growth stood at 0.993 ± 0.02.

`CC(=O)[C@@]1(O)CC[C@H]2[C@@H]3C=C(Cl)C4=CC(=O)[C@@H]5C[C@@H]5[C@]4(C)[C@H]3CC[C@@]21C` yielded a normalized growth of 1.08 ± 0.17.

`O.O.O=C([O-])CN(CCN(CC(=O)[O-])CC(=O)O)CC(=O)O.[Na+].[Na+]` had a normalized growth of 0.213 ± 0.012.

The compound `CCCOc1cc(N)ccc1C(=O)OCCN(CC)CC` displayed a normalized growth of 1.014 ± 0.0067.

For the compound `OC(Cn1cncn1)(Cn1cncn1)c1ccc(F)cc1F`, the normalized growth was found to be 1.15 ± 0.044.

Compound `NCCc1c[nH]cn1` displayed a normalized growth of 0.971 ± 0.038.

`CCN[C@H]1CN(CCCOC)S(=O)(=O)c2sc(S(N)(=O)=O)cc21` yielded a normalized growth of 1.1 ± 0.029.

The compound `CC(C)c1c(C(=O)Nc2ccccc2)c(-c2ccccc2)c(-c2ccc(F)cc2)n1CC[C@@H](O)C[C@@H](O)CC(=O)O` gave a normalized growth of 1.3 ± 0.041.

As to `CC(=O)OCC(=O)[C@@]1(O)CC[C@H]2[C@@H]3CCC4=CC(=O)CC[C@]4(C)[C@H]3[C@@H](O)C[C@@]21C`, the normalized growth was determined as 1.03 ± 0.045.

Regarding `CCCCCCCCCCCCCCCC(=O)OC/C=C(C)/C=C/C=C(C)/C=C/C1=C(C)CCCC1(C)C`, the normalized growth is 0.988 ± 0.048.

`C=CC(N)CCC(=O)O` (stereo not drawn): the normalized growth came out at 1.19 ± 0.024.

With `NS(=O)(=O)c1cc(C2(O)NC(=O)c3ccccc32)ccc1Cl` (stereo not drawn), the normalized growth is 1.09 ± 0.14.

In the case of `CC(=O)OCC(=O)[C@@]1(O)CC[C@H]2[C@@H]3CCC4=CC(=O)CC[C@]4(C)[C@@]3(F)[C@@H](O)C[C@@]21C`, the normalized growth is 1.09 ± 0.11.

`O=C(O)CCCCCCCC(=O)O` registered a normalized growth of 0.864 ± 0.053.

In the case of `FC(F)(F)C(Cl)Br` (stereo not drawn), the normalized growth amounted to 0.996 ± 0.069.

Compound `O=C(O)CN1C(=O)c2cccc3cccc(c23)C1=O` yielded a normalized growth of 0.982 ± 0.075.

As to `Cc1ccc(C(=O)c2ccc(CC(=O)O)n2C)cc1`, the normalized growth worked out at 0.999 ± 0.029.

In the case of `CCCCN(CCCC)CCCOC(=O)c1ccc(N)cc1`, the normalized growth turned out to be 0.952 ± 0.054.

`CC(=O)OCC(=O)[C@@]1(O)CC[C@H]2[C@@H]3CCC4=CC(=O)C=C[C@]4(C)[C@@]3(Cl)[C@@H](Cl)C[C@@]21C`: the normalized growth is 0.894 ± 0.024.

For `Cc1nccnc1N1CCCCC1`, the normalized growth stood at 0.952 ± 0.055.

On to `NNCCc1ccccc1`, for which the normalized growth was determined as 0.986 ± 0.067.

`CC(Cc1cccc(C(F)(F)F)c1)NCCOC(=O)c1ccccc1` (stereo not drawn) showed a normalized growth of 0.937 ± 0.029.

`CCCc1cc(C(N)=S)ccn1` came in with a normalized growth of 1.062 ± 0.003.

As for `CC(=O)S[C@@H]1CC2=CC(=O)CC[C@]2(C)[C@H]2CC[C@@]3(C)[C@@H](CC[C@@]34CCC(=O)O4)[C@H]12`, the normalized growth was 1.01 ± 0.026.

In turn, `N=C(N)NC(=N)NCCc1ccccc1` showed a normalized growth of 1.09 ± 0.045.

Compound `CN1CCC(=C2c3ccccc3C=Cc3ccccc32)CC1` yielded a normalized growth of 1.82 ± 0.28.

Take `CN1CCN(CC/C=C2/c3ccccc3Sc3ccc(S(=O)(=O)N(C)C)cc32)CC1`: the normalized growth amounted to 1.11 ± 0.043.

Regarding `CC(C)(CO)[C@@H](O)C(=O)NCCC(=O)NCCSSCCNC(=O)CCNC(=O)[C@H](O)C(C)(C)CO`, the normalized growth was 1.11 ± 0.015.

The compound `C[C@H]1O[C@H](O[C@H]2[C@H](O)[C@@H](O)[C@@H](O[C@H]3[C@H](O)[C@@H](O)C(O)O[C@@H]3CO)O[C@@H]2CO)[C@H](O)[C@@H](O)[C@@H]1N[C@H]1C=C(CO)[C@@H](O)[C@H](O)[C@H]1O` (stereo partly drawn) came in with a normalized growth of 1.07 ± 0.011.

Compound `O=C(O)c1cn(-c2ccc(F)cc2)c2cc(N3CCNCC3)c(F)cc2c1=O` yielded a normalized growth of 0.0341 ± 0.0073.

For `O=C(O)Cc1ccc(-c2ccccc2)cc1`, the normalized growth is 1.07 ± 0.027.

In turn, `C[C@@H]1C[C@H]2[C@@H]3C[C@H](F)C4=CC(=O)C=C[C@]4(C)[C@@]3(F)[C@@H](O)C[C@]2(C)[C@@]1(O)C(=O)CO` showed a normalized growth of 0.909 ± 0.0093.

`CC(=O)OCC(=O)[C@@]1(O)[C@@H](C)C[C@H]2[C@@H]3CCC4=CC(=O)C=C[C@]4(C)[C@@]3(F)[C@@H](O)C[C@@]21C` displayed a normalized growth of 1.01 ± 0.033.

Compound `CN1CCN(C2=Nc3ccccc3Oc3ccc(Cl)cc32)CC1` gave a normalized growth of 1.08 ± 0.016.

Turning to `CC(C)CC(N)=O`, the normalized growth came to 0.914 ± 0.044.

Take `COc1c2occc2cc2ccc(=O)oc12`: the normalized growth is 1.16 ± 0.073.

Turning to `NCc1ccccc1CC(=O)N[C@@H]1C(=O)N2C(C(=O)O)=C(CSc3nnnn3CC(=O)O)CS[C@H]12`, the normalized growth stood at 1.14 ± 0.021.

Turning to `N=C(NCCCCCCNC(=N)NC(=N)Nc1ccc(Cl)cc1)NC(=N)Nc1ccc(Cl)cc1`, the normalized growth was 0.997 ± 0.24.

Consider `N#Cc1ccc(C(c2ccc(C#N)cc2)n2cncn2)cc1`, for which the normalized growth was 0.907 ± 0.015.

Regarding `Clc1ccc(CCC(Cn2ccnc2)Sc2c(Cl)cccc2Cl)cc1` (stereo not drawn), the normalized growth came to 0.924 ± 0.024.

Take `C[N+]1(C)CCC(OC(=O)C(O)(c2ccccc2)C2CCCC2)C1` (stereo not drawn): the normalized growth amounted to 1.062 ± 0.0045.

`CN(C)CCCN1c2ccccc2Sc2ccc(C(F)(F)F)cc21`: the normalized growth turned out to be 1.09 ± 0.027.

Take `CCCCC(O)c1ccccc1` (stereo not drawn): the normalized growth worked out at 0.984 ± 0.032.

For `CC(N/C(=N\C#N)Nc1ccncc1)C(C)(C)C` (stereo not drawn), the normalized growth is 0.967 ± 0.059.

Regarding `CC1(C)OC(=O)C(OCC2CC2)=C1c1ccc(S(C)(=O)=O)cc1`, the normalized growth stood at 1.13 ± 0.025.

In the case of `CCN(CC)CCOC(=O)C1(C2CCCCC2)CCCCC1`, the normalized growth stood at 1.03 ± 0.043.

In turn, `CCCCOCCOCCOCc1cc2c(cc1CCC)OCO2` yielded a normalized growth of 0.935 ± 0.043.

In turn, `Oc1cc(O)c2c(c1)O[C@H](c1ccc(O)c(O)c1)[C@@H](O)C2` had a normalized growth of 1.04 ± 0.046.

For `CC(=O)Oc1ccccc1C(=O)Nc1ncc([N+](=O)[O-])s1`, the normalized growth was 1.14 ± 0.045.

In turn, `CO[C@H]1C[C@H](O[C@H]2[C@H](C)O[C@@H](O[C@@H]3/C(C)=C/C[C@@H]4C[C@@H](C[C@]5(C=C[C@H](C)[C@@H](C6CCCCC6)O5)O4)OC(=O)[C@@H]4C=C(C)[C@@H](O)[C@H]5OC/C(=C\C=C\[C@@H]3C)[C@]54O)C[C@@H]2OC)O[C@@H](C)[C@@H]1O` yielded a normalized growth of 0.776 ± 0.03.

For the compound `O=C1c2c(O)cccc2Cc2cccc(O)c21`, the normalized growth was 0.968 ± 0.033.

Take `CC[N+](C)(CC)CCOC(=O)C(O)(c1ccccc1)C1CCCCC1` (stereo not drawn): the normalized growth came out at 1.1 ± 0.03.
